# Experimental data published in the supplement of paper PMC12823440, “Inhibitors supercharge kinase turnover through native proteolytic circuits” (Nature, 2025).
# Sequences of proteins named here, by UniProt entry; tags and fusion partners are left off. A change or cut given only in a name is not applied to a line headed by its entry.
# UniProt Q16288, whole entry, looked up: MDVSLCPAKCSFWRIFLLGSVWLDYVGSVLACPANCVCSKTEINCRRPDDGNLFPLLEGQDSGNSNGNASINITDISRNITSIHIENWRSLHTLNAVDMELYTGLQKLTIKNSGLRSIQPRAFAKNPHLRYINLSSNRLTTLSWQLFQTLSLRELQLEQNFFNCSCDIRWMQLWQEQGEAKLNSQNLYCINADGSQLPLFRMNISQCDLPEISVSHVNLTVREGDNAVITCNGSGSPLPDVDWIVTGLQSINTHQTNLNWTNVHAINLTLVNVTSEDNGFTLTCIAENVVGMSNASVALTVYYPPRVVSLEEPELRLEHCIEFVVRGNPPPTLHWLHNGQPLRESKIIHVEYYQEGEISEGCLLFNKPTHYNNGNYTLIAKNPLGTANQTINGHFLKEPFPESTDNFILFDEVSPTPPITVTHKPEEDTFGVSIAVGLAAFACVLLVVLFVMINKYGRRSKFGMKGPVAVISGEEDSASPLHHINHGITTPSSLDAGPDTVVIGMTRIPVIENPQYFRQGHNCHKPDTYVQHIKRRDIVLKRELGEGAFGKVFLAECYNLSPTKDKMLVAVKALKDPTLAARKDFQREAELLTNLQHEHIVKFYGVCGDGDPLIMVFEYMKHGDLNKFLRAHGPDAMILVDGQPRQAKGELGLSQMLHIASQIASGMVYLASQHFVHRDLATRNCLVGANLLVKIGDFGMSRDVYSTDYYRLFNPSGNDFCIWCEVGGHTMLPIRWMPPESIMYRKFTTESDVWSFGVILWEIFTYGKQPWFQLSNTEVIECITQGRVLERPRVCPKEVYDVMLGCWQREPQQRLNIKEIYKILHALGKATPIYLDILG
# UniProt O96013: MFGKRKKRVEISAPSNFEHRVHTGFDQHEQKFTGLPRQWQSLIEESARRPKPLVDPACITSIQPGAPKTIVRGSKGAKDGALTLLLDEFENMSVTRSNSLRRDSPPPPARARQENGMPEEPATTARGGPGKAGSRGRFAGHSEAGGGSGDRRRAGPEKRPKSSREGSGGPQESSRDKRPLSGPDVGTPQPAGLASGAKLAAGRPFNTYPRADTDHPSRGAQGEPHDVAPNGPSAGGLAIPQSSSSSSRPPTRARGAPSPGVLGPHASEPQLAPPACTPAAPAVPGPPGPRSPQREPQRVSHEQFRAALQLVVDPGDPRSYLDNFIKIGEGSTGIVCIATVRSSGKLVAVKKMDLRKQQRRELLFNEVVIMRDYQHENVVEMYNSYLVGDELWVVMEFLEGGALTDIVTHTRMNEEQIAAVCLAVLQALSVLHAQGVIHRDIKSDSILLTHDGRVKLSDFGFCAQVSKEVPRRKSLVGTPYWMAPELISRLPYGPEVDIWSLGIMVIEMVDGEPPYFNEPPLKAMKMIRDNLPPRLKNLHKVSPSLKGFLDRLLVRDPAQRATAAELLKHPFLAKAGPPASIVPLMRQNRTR
# Where a name gives a salt, the structure may show the parent alone. The list shows a part of the results. Hit calls seldom repeat between salt and free forms of one compound.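 Kinases, fused to nanoluciferase, were expressed in K562 cells; luminescence was measured every 4 h from 2 to 18 h as percent of control (DMSO = 100%, positive control = 0%). A time point is decreased if signal falls significantly (2 sigma). Hits were called by the authors by a rule that is not shown; the count of time points alone does not decide it.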
# Biological target: NTRK3 (UniProt Q16288)
# Test: number of time points (of 5) at which kinase-Nluc abundance scored as decreased, DMSO-normalised (count); higher = more persistent destabilization
# Conditions: K562; 2-18 h
row,Structure (SMILES),number of time points
1,FC(F)(F)c1ccc(CNc2ccc(Cc3c[nH]c4ncccc34)cn2)cc1 (10 µM),0
2,c1ccc(-c2[nH]ncc2-c2ccnc3ccccc23)nc1 (10 µM),0
3,CC#CC(=O)N1CC[C@@H](n2c(=O)n(-c3ccc(Oc4ccccc4)cc3)c3c(N)ncnc32)C1 [Tirabrutinib (hydrochloride)] (10 µM),0
4,CC1=C(C(=O)O)N2C(=O)[C@@H](NC(=O)[C@H](N)C3=CCC=CC3)[C@H]2SC1 [Cephradine] (10 µM),0
5,Cn1cc(-c2ccc3nnc(Sc4ccc5ncccc5c4)n3n2)cn1 (10 µM),0
6,CC(=O)c1c(C)cc2cccc(O)c2c1O [Nepodin] (10 µM),0
7,NCCNS(=O)(=O)c1cccc2c(Cl)cccc12 [A-3 (hydrochloride)] (10 µM),0
8,N#Cc1c(C2CCNCC2)cc(-c2c(O)cccc2OCC2CC2)nc1N [ACHP (Hydrochloride)] (10 µM),0
9,C[C@@H]1COCCN1c1cc(C2([S@@](C)(=N)=O)CC2)nc(-c2ccnc3[nH]ccc23)n1 [(S)-Ceralasertib] (10 µM),0
10,NC(=O)c1nc(Nc2ccccc2)sc1NC(=O)C1CCCCC1 (10 µM),0
11,Cc1cc(Nc2ncnc3ccc(NC4=NC(C)(C)CO4)cc23)ccc1Oc1ccn2ncnc2c1 [Tucatinib (hemiethanolate)] (2.5 µM),0
12,Cc1ccc(C(=O)Nc2ccc(Oc3cc4cnn(C)c4cc3-c3cn[nH]c3)c(F)c2)c(=O)n1-c1ccc(F)cc1 [Merestinib dihydrochloride] (2.5 µM),0
13,O=C1Nc2ccc(C(=O)c3ccco3)cc2C1=Cc1cc(Cl)c(O)c(Cl)c1 (2.5 µM),0
14,C=CC(=O)Nc1cc(Nc2ncc(Cl)c(-c3c[nH]c4ccccc34)n2)c(OC)cc1N(C)CCN(C)C [Mutant EGFR inhibitor] (2.5 µM),2
15,C[C@@H](c1ccc(-c2ccccc2)c(F)c1)c1cc(NC(=N)N2CCOCC2)on1 [Rimacalib] (10 µM),0
16,Cn1nccc1Nc1nccc(-c2ccn([C@H](CO)c3ccc(Cl)c(F)c3)c(=O)c2)n1 [Ravoxertinib hydrochloride] (10 µM),0
17,Oc1cc2c(cc1O)C(Cc1cccc3ccccc13)NCC2 (stereo not drawn) (10 µM),0
18,O=C1N[C@@H](Cc2c[nH]c3ccccc23)C(=O)N2CCC[C@@H]12 [Brevianamide F] (10 µM),0
19,CCS(=O)(=O)Nc1ccc2[nH]c(O)c(C(=Nc3ccc(CN4CCCCC4)cc3)c3ccccc3)c2c1 [Hesperadin] (2.5 µM),3
20,O=C1NC(=O)/C(=C/c2ccc3nccnc3c2)S1 (10 µM),0
21,CNc1nc(Nc2ccc(C(=O)N3CCOCC3)cc2OC)nc2[nH]cc(Cl)c12 (2.5 µM),0
22,CC#CC(=O)N1CC[C@@H](n2c(=O)n(-c3ccc(Oc4ccccc4)cc3)c3c(N)ncnc32)C1 [Tirabrutinib] (10 µM),0
23,CCc1c(C(=O)NNC(=O)C(O)c2cc(F)cc(F)c2)ccc(O)c1C (stereo not drawn) (10 µM),0
24,CNC(=O)c1ccc(C)c(-n2c(C)cc(OCc3ccc(F)cc3F)c(Br)c2=O)c1 (10 µM),0
25,O=C(NOCC(O)CO)c1cc(Br)c(F)c(F)c1Nc1ccc(I)cc1F (stereo not drawn) (2.5 µM),0

# Biological target: PAK4 (UniProt O96013)
# Test: as above
# Conditions: K562; 2-18 h
row,Structure (SMILES),number of time points
1,Cc1cc(=O)oc2c(C=O)c(O)ccc12 (10 µM),0
2,Nc1nc(F)nc2c1ncn2[C@@H]1O[C@H](CO)[C@@H](O)[C@@H]1O [Fludarabine] (10 µM),0
3,CC(C)(C)c1cc(O)ccc1O (10 µM),0
4,COc1ccc(Cl)c(Nc2nc3ccccc3nc2NS(=O)(=O)c2cccc(NC(=O)C(C)(C)N)c2)c1 [Pilaralisib] (10 µM),0
5,Cc1ccc(CNc2ncnc3ccc(-c4ccc(CO)o4)cc23)o1 (10 µM),0
6,C=CC(=O)Nc1cccc(Nc2nc(Nc3ccc(N4CCN(C(C)=O)CC4)cc3OC)ncc2C(F)(F)F)c1 [Rociletinib] (10 µM),0
7,Nc1ncnc2c1c(-c1cccc(OCc3ccccc3)c1)cn2C1CC(CN2CCC2)C1 (stereo not drawn) (2.5 µM),0
8,Oc1cc(O)c2cc(O)c(-c3cc(O)c(O)c(O)c3)[o+]c2c1 [Delphinidin (chloride)] (10 µM),0
9,CCCS(=O)(=O)Nc1ccc(F)c(C(=O)c2c[nH]c3ncc(-c4ccc(Cl)cc4)cc23)c1F [Vemurafenib] (10 µM),0
10,COCCNc1nc2ccc(C#CC3(O)CCCCC3)cc2n1-c1ccnc(N)n1 (10 µM),0
11,CCC(C)N1c2ccccc2C(=O)N(C)c2cnc(Nc3ccc(C(=O)N4CCC(N5CCN(C)CC5)CC4)cc3OC)nc21 (stereo not drawn) (2.5 µM),0
12,Cc1cc(CN2CCN(c3c(Br)cnc4nc(-c5ccc(N6CCN(C)CC6)cc5)[nH]c34)CC2)no1 (2.5 µM),0
13,O=C(CSC1=NCCN1)NC1CCCCCC1 [ICCB-19 (hydrochloride)] (2.5 µM),0
14,FC(F)(F)c1ccc(CNc2ccc(Cc3c[nH]c4ncccc34)cn2)cc1 (10 µM),0
15,c1ccc(-c2[nH]ncc2-c2ccnc3ccccc23)nc1 (10 µM),0
16,CC#CC(=O)N1CC[C@@H](n2c(=O)n(-c3ccc(Oc4ccccc4)cc3)c3c(N)ncnc32)C1 [Tirabrutinib (hydrochloride)] (10 µM),0
17,CC1=C(C(=O)O)N2C(=O)[C@@H](NC(=O)[C@H](N)C3=CCC=CC3)[C@H]2SC1 [Cephradine] (10 µM),0
18,Cn1cc(-c2ccc3nnc(Sc4ccc5ncccc5c4)n3n2)cn1 (10 µM),0
19,CC(=O)c1c(C)cc2cccc(O)c2c1O [Nepodin] (10 µM),0

row,Structure (SMILES),number of time points
1,NCCNS(=O)(=O)c1cccc2c(Cl)cccc12 [A-3 (hydrochloride)] (10 µM),0
2,N#Cc1c(C2CCNCC2)cc(-c2c(O)cccc2OCC2CC2)nc1N [ACHP (Hydrochloride)] (10 µM),0
3,C[C@@H]1COCCN1c1cc(C2([S@@](C)(=N)=O)CC2)nc(-c2ccnc3[nH]ccc23)n1 [(S)-Ceralasertib] (10 µM),0
4,NC(=O)c1nc(Nc2ccccc2)sc1NC(=O)C1CCCCC1 (10 µM),0
5,Cc1cc(Nc2ncnc3ccc(NC4=NC(C)(C)CO4)cc23)ccc1Oc1ccn2ncnc2c1 [Tucatinib (hemiethanolate)] (2.5 µM),0
6,Cc1ccc(C(=O)Nc2ccc(Oc3cc4cnn(C)c4cc3-c3cn[nH]c3)c(F)c2)c(=O)n1-c1ccc(F)cc1 [Merestinib dihydrochloride] (2.5 µM),0
7,O=C1Nc2ccc(C(=O)c3ccco3)cc2C1=Cc1cc(Cl)c(O)c(Cl)c1 (2.5 µM),0
8,C=CC(=O)Nc1cc(Nc2ncc(Cl)c(-c3c[nH]c4ccccc34)n2)c(OC)cc1N(C)CCN(C)C [Mutant EGFR inhibitor] (2.5 µM),0
9,C[C@@H](c1ccc(-c2ccccc2)c(F)c1)c1cc(NC(=N)N2CCOCC2)on1 [Rimacalib] (10 µM),0
10,Cn1nccc1Nc1nccc(-c2ccn([C@H](CO)c3ccc(Cl)c(F)c3)c(=O)c2)n1 [Ravoxertinib hydrochloride] (10 µM),0
11,Oc1cc2c(cc1O)C(Cc1cccc3ccccc13)NCC2 (stereo not drawn) (10 µM),0
12,O=C1N[C@@H](Cc2c[nH]c3ccccc23)C(=O)N2CCC[C@@H]12 [Brevianamide F] (10 µM),0
13,CCS(=O)(=O)Nc1ccc2[nH]c(O)c(C(=Nc3ccc(CN4CCCCC4)cc3)c3ccccc3)c2c1 [Hesperadin] (2.5 µM),0
14,O=C1NC(=O)/C(=C/c2ccc3nccnc3c2)S1 (10 µM),0
15,CNc1nc(Nc2ccc(C(=O)N3CCOCC3)cc2OC)nc2[nH]cc(Cl)c12 (2.5 µM),0
16,CC#CC(=O)N1CC[C@@H](n2c(=O)n(-c3ccc(Oc4ccccc4)cc3)c3c(N)ncnc32)C1 [Tirabrutinib] (10 µM),0
17,CCc1c(C(=O)NNC(=O)C(O)c2cc(F)cc(F)c2)ccc(O)c1C (stereo not drawn) (10 µM),0
18,CNC(=O)c1ccc(C)c(-n2c(C)cc(OCc3ccc(F)cc3F)c(Br)c2=O)c1 (10 µM),0
19,O=C(NOCC(O)CO)c1cc(Br)c(F)c(F)c1Nc1ccc(I)cc1F (stereo not drawn) (2.5 µM),0
